Literature values in patent USRE39707E1, “Camptothecin derivatives” (Catholic Healthcare West, priority 2001, dated 2007).

Settings: background statement; cited from earlier work

For `CC[C@@]1(O)C(=O)OCc2c1cc1n(c2=O)Cc2cc3ccccc3nc2-1` [CPT, (S)-4-ethyl-4-hydroxy-1H-pyrano-[3′,4′:6,7]indolizino[1,2-b]quinoline-3,14(4H,12H)-dione, reference compound], the solubility in water is listed as “essentially insoluble in water”.
